In PMC5095888:
Results are given in words; binding and its absence hold for the method and conditions named. Some entries that bind do so weakly or less than the wild type.

Target: GST-MDM2 (full length) (UniProt P23804)
Assay: pull-down; purified GST-MDM2 incubated with purified FLAG-p53 and an increasing amount of purified FLAG-HA-CSIG overnight at 4 °C; Glutathione Sepharose; washed with BC100 buffer; western blot; both purified

Substance: FLAG-p53 (from UniProt P04637 1-393)
- binding: binds
